Assay results from patent publication EP1516629B1.
These are yes or no findings as the source states them, for the method shown.

Legend:
[1] = biological target: T1, human CD11a (human) (UniProt P20701); experiment: FACScan, Jurkat cells
T1 sequence (looked up): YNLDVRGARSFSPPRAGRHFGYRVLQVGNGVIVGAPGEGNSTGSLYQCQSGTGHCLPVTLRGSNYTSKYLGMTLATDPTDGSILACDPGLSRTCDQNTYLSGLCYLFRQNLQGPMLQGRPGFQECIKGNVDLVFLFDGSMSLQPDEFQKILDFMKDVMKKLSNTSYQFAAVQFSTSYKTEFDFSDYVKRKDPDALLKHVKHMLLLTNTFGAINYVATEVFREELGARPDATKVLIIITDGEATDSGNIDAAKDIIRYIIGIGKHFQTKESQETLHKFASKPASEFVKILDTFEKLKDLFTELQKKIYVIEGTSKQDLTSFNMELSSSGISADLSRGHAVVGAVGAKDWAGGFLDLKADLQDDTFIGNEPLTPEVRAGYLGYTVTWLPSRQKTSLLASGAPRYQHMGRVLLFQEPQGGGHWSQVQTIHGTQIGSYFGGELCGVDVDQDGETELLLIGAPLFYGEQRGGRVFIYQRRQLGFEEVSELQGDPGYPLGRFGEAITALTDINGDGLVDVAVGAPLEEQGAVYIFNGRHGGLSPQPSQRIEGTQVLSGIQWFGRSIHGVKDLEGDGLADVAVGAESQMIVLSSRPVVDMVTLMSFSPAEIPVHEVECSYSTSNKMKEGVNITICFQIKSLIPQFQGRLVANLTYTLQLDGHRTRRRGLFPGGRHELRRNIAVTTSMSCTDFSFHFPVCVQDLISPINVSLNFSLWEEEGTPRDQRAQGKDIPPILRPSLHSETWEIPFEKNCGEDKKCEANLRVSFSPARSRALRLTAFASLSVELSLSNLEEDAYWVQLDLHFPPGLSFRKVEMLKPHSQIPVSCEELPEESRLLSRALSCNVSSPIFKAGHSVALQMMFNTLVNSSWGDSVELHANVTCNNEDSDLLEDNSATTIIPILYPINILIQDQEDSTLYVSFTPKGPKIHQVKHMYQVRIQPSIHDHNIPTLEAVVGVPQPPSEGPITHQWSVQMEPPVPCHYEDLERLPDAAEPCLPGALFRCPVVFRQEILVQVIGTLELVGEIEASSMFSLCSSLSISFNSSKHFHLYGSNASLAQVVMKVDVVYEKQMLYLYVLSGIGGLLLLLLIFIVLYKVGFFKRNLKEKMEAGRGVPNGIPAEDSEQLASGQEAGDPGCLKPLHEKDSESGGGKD

[2] = biological target: T2, rhesus CD11a (rhesus) (UniProt H9Z8N3); experiment: binding to rhesus peripheral blood lymphocytes
T2 sequence: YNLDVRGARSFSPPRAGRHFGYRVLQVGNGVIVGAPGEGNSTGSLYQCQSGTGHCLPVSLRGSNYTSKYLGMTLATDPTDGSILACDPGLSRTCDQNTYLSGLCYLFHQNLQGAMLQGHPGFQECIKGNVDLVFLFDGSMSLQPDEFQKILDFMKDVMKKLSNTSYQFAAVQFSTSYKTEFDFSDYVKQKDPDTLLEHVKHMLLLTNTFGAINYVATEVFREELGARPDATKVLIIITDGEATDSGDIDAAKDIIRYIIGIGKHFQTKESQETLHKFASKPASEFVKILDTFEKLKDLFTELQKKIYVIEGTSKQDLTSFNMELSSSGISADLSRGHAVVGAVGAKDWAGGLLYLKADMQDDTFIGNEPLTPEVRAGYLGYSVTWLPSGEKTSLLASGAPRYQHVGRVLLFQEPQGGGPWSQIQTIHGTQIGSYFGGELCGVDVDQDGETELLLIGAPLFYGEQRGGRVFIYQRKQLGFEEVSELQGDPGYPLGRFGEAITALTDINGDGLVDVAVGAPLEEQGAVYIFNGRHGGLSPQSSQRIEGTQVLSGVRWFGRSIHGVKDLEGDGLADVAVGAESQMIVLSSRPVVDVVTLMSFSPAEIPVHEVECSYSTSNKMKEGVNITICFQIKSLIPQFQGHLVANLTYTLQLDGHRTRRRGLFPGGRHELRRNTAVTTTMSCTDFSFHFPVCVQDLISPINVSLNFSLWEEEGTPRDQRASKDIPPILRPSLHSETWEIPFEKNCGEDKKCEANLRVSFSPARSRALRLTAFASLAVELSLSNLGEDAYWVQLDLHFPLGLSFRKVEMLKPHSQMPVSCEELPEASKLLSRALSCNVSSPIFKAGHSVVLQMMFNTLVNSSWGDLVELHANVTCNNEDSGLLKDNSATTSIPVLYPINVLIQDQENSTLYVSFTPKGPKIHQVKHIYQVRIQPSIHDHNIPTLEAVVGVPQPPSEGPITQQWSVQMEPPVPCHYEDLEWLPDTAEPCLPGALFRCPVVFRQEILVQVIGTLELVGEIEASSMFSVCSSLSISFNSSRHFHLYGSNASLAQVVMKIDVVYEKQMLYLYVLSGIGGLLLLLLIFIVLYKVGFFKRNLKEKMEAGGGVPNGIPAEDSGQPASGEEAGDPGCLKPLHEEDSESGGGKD

B1: H3 variant IgG1 (antibody, V domains shown)
VH: EVQLVESGGGLVQPGGSLRLSCAASGYSFTGHWMNWVRQAPGKGLEWVGMIHPSDSETRYNQKFKDRFTISVDKSKNTLYLQMNSLRAEDTAVYYCARGIAFAGTTYFDYWGQGTLVTVSS
VL: DIQMTQSPSSLSASVGDRVTITCRASKTISKYLAWYQQKPGKAPKLLIYSGSTLQSGVPSRFSGSGSGTDFTLTISSLQPEDFATYYCQQHNEYPLTFGQGTKVEIK
Which results are given for B1?
binding [1]: no binding (tested: Var.EC50/HuIgG1 EC50 >900); binding [2]: no binding (tested: greater than 10-fold weaker than HuIgG1)
